Measured values from PubChem BioAssay AID1347075 (National Center for Advancing Translational Sciences (NCATS), 2019).
Among all 400,000 compounds or so, about 5,500 (1.4%) were called active. Inconclusive means that the source gave no clear call. Such entries were picked first, then a sample of the others. Calls follow the shape of the dose curve; as a rule, active = well fitted cell-killing curve with a large enough effect; inconclusive = small, poorly fitted or top-dose-only effect, or effect the other way; inactive = flat fitted curve, though single readings scatter. A potency beside an inconclusive call is a rough fit, not a confirmed value.

assay: qHTS assay for MDR1-selective chemotherapeutics: Primary screen using the parental adenocarcinoma cell KB-3-1; conditions: KB-3-1 viability, CellTiter-Glo ATP luminescence, 72 h; activity change, negative = cytotoxic: at 46.1 µM (top of the series); also: nearly all actives have a fitted effect of over 60% in size
Summary of the method: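 Cells are dispensed, compounds pinned in, plates held at 37 °C for 72 h, then CellTiter-Glo is added and luminescence read after 10 minutes. Cell line: parental KB-3-1 in phenol-red-free DMEM, 10% FBS.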
% is scaled to controls: 0 for no effect and ±100 for the full control effect; potency is read from the fitted curve at half-maximal effect.

Question: With `COc1cccc(NC(=O)CC(C)=O)c1` as the molecule, how does the “activity change, negative = cytotoxic” value read?
Answer: inactive: -1.86%

Question: For `Cc1ccc(-n2ncc(C(=O)NC3CCCC3)c2C2CCN(C(=O)OC(C)(C)C)CC2)c(C)c1`, which “activity change, negative = cytotoxic” value is on record?
Answer: inactive: 2.99%

Question: For `Cc1ccccc1NC(=S)NNC(=O)c1csc2c1CCC(C)C2` (stereo unspecified), which Potency is on record?
Answer: inconclusive: 31.6 µM [cytotoxic, single point]

Question: With `Cc1cc2cc3n(c2nn1)N=C(Cl)CC3` as the molecule, how does the Potency read?
Answer: inconclusive: 23.1 µM [cytotoxic, single point]

Question: With `O=C(Nc1cccnc1Cl)c1cc(-c2ccccc2O)on1` as the molecule, how does the Potency read?
Answer: inconclusive: 29.1 µM [rising, single point]

Question: For `Cc1cc2ccccc2n1CCNC(=O)COc1ccccc1`, which “activity change, negative = cytotoxic” value is on record?
Answer: inactive: -0.337%

Question: Which Potency does the source give for `COc1ccc(-c2[nH]c(-c3ccc(C)cc3)nc2SCC(=O)NC2CCCC2)cc1` here?
Answer: inconclusive: 29.1 µM [cytotoxic, single point]

Question: For `O=C(N/N=C/c1ccc([N+](=O)[O-])o1)c1ccc(NS(=O)(=O)c2cccs2)cc1`, which Potency is on record?
Answer: inconclusive: 29.1 µM [cytotoxic, single point]

Question: For `CC(Sc1nnc(-c2ccc(Cl)cc2Cl)n1Cc1ccccc1)C(=O)Nc1nccs1` (stereo unspecified), which Potency is on record?
Answer: inconclusive: 18.4 µM [cytotoxic, single point]

Question: With `CCc1ccc(-c2cc3c(=O)n(CC(=O)NCCCN4CCN(Cc5ccccc5)CC4)nc(C)n3n2)cc1` as the molecule, how does the Potency read?
Answer: inconclusive: 23.1 µM [cytotoxic, single point]

Question: For `COc1cc(-c2cnc3c(NC=O)cc(-c4ccc(N5CCN(C)CC5)cc4)cn23)cc(OC)c1OC`, which Potency is on record?
Answer: inconclusive: 29.1 µM [cytotoxic, single point]

Question: With `CCOc1ccccc1NC(=O)CN1C(=O)CC(c2ccco2)Sc2ccccc21` (stereo unspecified) as the molecule, how does the Potency read?
Answer: inconclusive: 20.6 µM [cytotoxic, single point]

Question: Which “activity change, negative = cytotoxic” value does the source give for `CCN(CCCNC(=O)CN1C(=O)COc2ccc(S(=O)(=O)N3CCC(C)CC3)cc21)Cc1ccccc1` here?
Answer: inactive: -11.4%

Question: Which “activity change, negative = cytotoxic” value does the source give for `Cc1ccc(NC(=S)NCc2ccc3c(c2)OCO3)cc1` here?
Answer: inactive: 0.953%

Question: Which Potency does the source give for `Cc1cccc([C@@H]2[C@@H]3C(=O)N(Cc4ccccc4)C(=O)[C@@H]3[C@]3(C)C(=O)N(c4ccc(C(F)(F)F)cc4)C(=O)N23)c1` here?
Answer: inconclusive: 29.1 µM [cytotoxic, single point]

Question: With `Cc1cc(C)cc(NC(=O)/C=C/c2ccc([N+](=O)[O-])s2)c1` as the molecule, how does the Potency read?
Answer: active: 6.51 µM

Question: With `CCCCN1C(N)=NC[C@@H]1Cc1ccccc1` as the molecule, how does the Potency read?
Answer: inconclusive: 29.1 µM [cytotoxic, single point]

Question: Which “activity change, negative = cytotoxic” value does the source give for `CCOC(=O)c1ccc(NC(=O)C(C)Sc2nc(O)c(-c3ccccc3)c(=O)[nH]2)cc1` (stereo unspecified) here?
Answer: inactive: -0.695%

Question: Which Potency does the source give for `COc1ccc(N2CCN(C(=O)c3cn(C4CCCC4)c(=O)c4c3c3ccccc3n4C)CC2)cc1` here?
Answer: inconclusive: 18.4 µM [cytotoxic, single point]

Question: With `C=CCNc1nc(NCc2ccc(NC(C)=O)cc2)c2sc(-c3ccccc3)cc2n1` as the molecule, how does the Potency read?
Answer: inconclusive: 29.1 µM [cytotoxic, single point]

Question: For `COc1ccc2c(c1)-c1c(ssc1=S)C(C)(C)N2S(=O)(=O)c1ccc(C)cc1`, which Potency is on record?
Answer: inconclusive: 29.1 µM [cytotoxic, single point]

Question: With `Cc1cccc(C(=O)N(CCc2ccccc2)Cc2ccccc2)c1[N+](=O)[O-]` as the molecule, how does the Potency read?
Answer: inconclusive: 18.4 µM [cytotoxic, single point]

Question: With `COc1ccc(-c2noc(N3CCC(C(=O)N(C)c4ccccc4C)CC3)n2)cc1` as the molecule, how does the Potency read?
Answer: inconclusive: 20.6 µM [cytotoxic, single point]

Question: Which Potency does the source give for `COc1cccc(Cn2c(-c3nonc3N)nc3ccccc32)c1` here?
Answer: active: 2.91 µM

Question: For `CC1CCC/C(=C(\C#N)c2nc(-c3cc4ccccc4oc3=O)cs2)C1` (stereo unspecified), which Potency is on record?
Answer: inconclusive: 16.4 µM [cytotoxic, single point]

Question: With `CCN(CC)c1ccc(-c2nn3c(-c4ccccc4OC)nnc3s2)cc1` as the molecule, how does the Potency read?
Answer: active: 0.82 µM

Question: Which “activity change, negative = cytotoxic” value does the source give for `c1ccc(C[C@H]2CN=C(Nc3ccccc3)N2CC2CCC2)cc1` here?
Answer: inactive: 2.6%

Question: With `COc1ccc(N=C2NC(=O)/C(=C/c3ccc(O)c(OC)c3)S2)cc1` as the molecule, how does the Potency read?
Answer: inconclusive: 23.1 µM [cytotoxic, single point]

Question: With `COc1ccc(Cl)cc1C(=O)CSc1nnnn1C1CCCC1` as the molecule, how does the “activity change, negative = cytotoxic” value read?
Answer: inactive: -3.38%

Question: For `Cc1ccccc1NC(=O)Cn1cnc2c(oc3ccccc32)c1=O`, which “activity change, negative = cytotoxic” value is on record?
Answer: inactive: 8.28%

Question: Which Potency does the source give for `O=C(Nc1cccc([N+](=O)[O-])c1)c1ccc2ccccc2c1O` here?
Answer: inconclusive: 18.4 µM [cytotoxic, single point]

Question: With `N#CC(=C(c1ccccc1)c1ccccc1)c1ccccc1` as the molecule, how does the Potency read?
Answer: inconclusive: 16.4 µM [cytotoxic, single point]

Question: With `O=C(Nc1ccccc1)Nc1ccc(Br)c(Cl)c1` as the molecule, how does the Potency read?
Answer: inconclusive: 29.1 µM [cytotoxic, single point]

Question: Which “activity change, negative = cytotoxic” value does the source give for `COc1ccc(NC(=O)c2oc3ccccc3c2NC(=O)c2cc(=O)c3c(C)cc(C)cc3o2)cc1` here?
Answer: inactive: 1.35%

Question: Which Potency does the source give for `Nc1cnn(C2OC(CO)C(O)C2O)c(=O)n1` (stereo unspecified) here?
Answer: active: 2.31 µM

Question: For `CC(NC(=O)COC(=O)c1ccc2c(c1)S(=O)(=O)N=C1CCCCCN12)C12CC3CC(CC(C3)C1)C2` (stereo unspecified), which Potency is on record?
Answer: inconclusive: 29.1 µM [cytotoxic, partial curve, poor fit]

Question: Which “activity change, negative = cytotoxic” value does the source give for `COc1ccc(NC(=O)Nc2cccc3c2O[C@H](CN(C)Cc2ccc(-c4ccccc4)cc2)[C@@H](C)CN([C@H](C)CO)C3=O)cc1` here?
Answer: inactive: -10.6%

Question: For `Cc1onc(-c2c(Cl)cccc2Cl)c1-c1nnc(-c2ccc(Cl)cc2)o1`, which Potency is on record?
Answer: inconclusive: 29.1 µM [cytotoxic, single point]

Question: Which Potency does the source give for `Cc1ccc(NC(=O)CS(=O)(=O)c2nc(-c3ccc(C)cc3)cn2-c2ccc(C)cc2)cc1` here?
Answer: inconclusive: 25.9 µM [cytotoxic, single point]

Question: With `CC(=O)Nc1ccc(-c2csc(Nc3ccc(Cl)cn3)n2)cc1` as the molecule, how does the Potency read?
Answer: inconclusive: 20.6 µM [cytotoxic, single point]

Question: With `COc1ccc(Cc2noc(-c3ccc([N+](=O)[O-])cc3)n2)cc1OC` as the molecule, how does the Potency read?
Answer: inconclusive: 25.9 µM [cytotoxic, single point]

Question: Which Potency does the source give for `Cc1cc([N+](=O)[O-])nn1CC(=O)N/N=C/c1ccc(O)cc1O` here?
Answer: inconclusive: 29.1 µM [cytotoxic, single point]

Question: With `O=C(Nc1cc(C(F)(F)F)cc(C(F)(F)F)c1)Nc1cnn(-c2ccc([N+](=O)[O-])cc2)c1C(F)(F)F` as the molecule, how does the Potency read?
Answer: inconclusive: 2.91 µM [cytotoxic, full curve, poor fit]

Question: For `Cc1ccc(S(=O)(=O)c2cnc(SCC(=O)Nc3cc(C)cc(C)c3)nc2N)cc1`, which “activity change, negative = cytotoxic” value is on record?
Answer: inactive: 0%

Question: Which Potency does the source give for `CCCNC(=O)c1ccc2c(c1)C1C3CCC(C3)C1C(c1ccccc1)N2` (stereo unspecified) here?
Answer: inconclusive: 29.1 µM [cytotoxic, single point]

Question: For `CCN(CC)c1ccc(NC(=O)CSc2nnc(C)c(=O)[nH]2)cc1`, which “activity change, negative = cytotoxic” value is on record?
Answer: inactive: 6.44%

Question: For `Cc1ccc(S(=O)(=O)N2C[C@H]3N(C(=O)OC(C)C)N(C(=O)OC(C)C)C[C@H](OC(=O)Nc4c(C)noc4C)[C@@]3(O)C2)cc1`, which “activity change, negative = cytotoxic” value is on record?
Answer: inactive: 15.4%

Question: With `Cc1cccc(CN2C(=O)c3ccccc3Sc3ccc(C(=O)N4CCCC4)cc32)c1` as the molecule, how does the Potency read?
Answer: inconclusive: 0.0058 µM [cytotoxic, full curve, poor fit]

Question: With `CCN(CC)c1ccc(/C=N/NC(=O)c2nnn(-c3nonc3N)c2CN(C)C2CCCCC2)cc1` as the molecule, how does the “activity change, negative = cytotoxic” value read?
Answer: inactive: -1.75%

Question: With `O=C1C2CCCCC2C(=O)N1Cc1ccccc1` (stereo unspecified) as the molecule, how does the Potency read?
Answer: inconclusive: 29.1 µM [rising, single point]

Question: With `CCOC(=O)c1c(C)sc2c1N(C(=O)CCl)c1cc(Cl)ccc1S2` as the molecule, how does the Potency read?
Answer: inconclusive: 29.1 µM [cytotoxic, single point]

Question: With `Cc1nc(-c2ccc(C(F)(F)F)cc2)sc1C(=O)NN` as the molecule, how does the Potency read?
Answer: inconclusive: 29.1 µM [cytotoxic, single point]

Question: For `COC(=O)c1cc(S(=O)(=O)NCC2CCN(Cc3cc(C)ccc3C)CC2)c[nH]1`, which Potency is on record?
Answer: inconclusive: 0.0411 µM [rising, full curve]

Question: Which “activity change, negative = cytotoxic” value does the source give for `CCCCNC(=O)c1onc(CSc2ccccc2)c1C(=O)NCCCC` here?
Answer: inactive: 13.8%

Question: For `O=C(COc1ccc(S(=O)(=O)Nc2ccccc2)cc1)NCc1ccccn1`, which Potency is on record?
Answer: inconclusive: 13 µM [rising, partial curve]

Question: For `C#CCOCCOCCOCCNc1nc(N2CCN(C(=O)[C@H](C(C)C)n3cc(CCO)nn3)CC2)nc(N2CCN(C(=O)[C@H](C)n3cc(CCCN=C(N)N)nn3)CC2)n1`, which Potency is on record?
Answer: inconclusive: 32.6 µM [rising, single point]

Question: For `O=C(Nc1cccc(S(=O)(=O)NC2=NCCC2)c1)c1cn(-c2ccccc2)nc1-c1ccc(F)cc1`, which Potency is on record?
Answer: inconclusive: 32.6 µM [cytotoxic, single point]

Question: With `Cc1nn(C(C)C)c(C)c1CN1CCC(C(=O)Nc2cccc(-c3cccc(F)c3)c2)CC1` as the molecule, how does the Potency read?
Answer: inconclusive: 29.1 µM [cytotoxic, single point]

Question: With `COCCNC(=O)NC1(C(F)(F)F)Oc2ccc(Cl)cc2O1` (stereo unspecified) as the molecule, how does the Potency read?
Answer: active: 23.1 µM

Question: For `COCc1nnc(NC(=O)c2ccc(S(=O)(=O)N3CCCCCC3)cc2)o1`, which Potency is on record?
Answer: inconclusive: 29.1 µM [cytotoxic, single point]

Question: With `CCOC(=O)C1(CCOc2ccccc2)CCN(Cc2cccs2)CC1` as the molecule, how does the Potency read?
Answer: inconclusive: 29.1 µM [cytotoxic, single point]

Question: Which Potency does the source give for `O=C(N/N=C/c1ccc(Cl)cc1)c1cc(-c2cccnc2)nc2ccccc12` here?
Answer: active: 9.2 µM

Question: With `Fc1ccc(CN2CCN(C(c3ccccc3)c3ccccc3)CC2)cc1` as the molecule, how does the “activity change, negative = cytotoxic” value read?
Answer: inactive: 3.28%

Question: Which Potency does the source give for `Cc1ccc(C)c(NC(=O)c2ccccc2O)c1` here?
Answer: inconclusive: 29.1 µM [cytotoxic, single point]

Question: With `CC(=O)Nc1ccc(/C=N/Nc2nc3ccccc3s2)cc1` as the molecule, how does the Potency read?
Answer: inconclusive: 13 µM [rising, partial curve, poor fit]

Question: For `COc1ccc(C(=O)Nc2ccc(-c3nc4ncccc4o3)cc2)cc1`, which “activity change, negative = cytotoxic” value is on record?
Answer: inactive: -7.66%
